The values below come from publication PMC12072422.

Chains of the proteins cited; added tags and fusions are not shown.
UniProt Q38998: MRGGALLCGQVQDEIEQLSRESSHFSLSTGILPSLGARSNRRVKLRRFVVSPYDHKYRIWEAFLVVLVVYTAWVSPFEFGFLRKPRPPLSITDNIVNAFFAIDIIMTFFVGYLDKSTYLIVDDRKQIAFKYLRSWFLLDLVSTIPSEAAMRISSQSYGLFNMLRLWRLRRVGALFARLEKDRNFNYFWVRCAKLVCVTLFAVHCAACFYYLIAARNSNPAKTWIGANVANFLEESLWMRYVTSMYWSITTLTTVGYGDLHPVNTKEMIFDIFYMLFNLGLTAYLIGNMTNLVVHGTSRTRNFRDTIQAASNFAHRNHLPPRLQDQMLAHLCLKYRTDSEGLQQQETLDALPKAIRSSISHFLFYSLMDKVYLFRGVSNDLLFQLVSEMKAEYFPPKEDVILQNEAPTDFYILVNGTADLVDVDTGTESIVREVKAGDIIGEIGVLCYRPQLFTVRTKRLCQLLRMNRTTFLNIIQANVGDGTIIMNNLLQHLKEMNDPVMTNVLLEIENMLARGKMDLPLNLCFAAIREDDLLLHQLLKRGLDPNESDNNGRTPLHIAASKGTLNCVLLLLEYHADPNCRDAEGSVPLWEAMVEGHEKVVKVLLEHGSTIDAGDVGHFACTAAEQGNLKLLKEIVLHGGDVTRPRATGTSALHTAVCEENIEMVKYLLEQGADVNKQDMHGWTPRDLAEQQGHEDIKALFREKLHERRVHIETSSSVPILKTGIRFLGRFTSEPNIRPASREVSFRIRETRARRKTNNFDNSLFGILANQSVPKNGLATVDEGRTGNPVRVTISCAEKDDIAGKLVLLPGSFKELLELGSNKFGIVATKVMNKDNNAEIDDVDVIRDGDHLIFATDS

The assay addresses T1, AtCIPK23 (luciferase fragment fusion) (Arabidopsis thaliana (by the prefix At)) (UniProt Q93VD3).
T1 sequence: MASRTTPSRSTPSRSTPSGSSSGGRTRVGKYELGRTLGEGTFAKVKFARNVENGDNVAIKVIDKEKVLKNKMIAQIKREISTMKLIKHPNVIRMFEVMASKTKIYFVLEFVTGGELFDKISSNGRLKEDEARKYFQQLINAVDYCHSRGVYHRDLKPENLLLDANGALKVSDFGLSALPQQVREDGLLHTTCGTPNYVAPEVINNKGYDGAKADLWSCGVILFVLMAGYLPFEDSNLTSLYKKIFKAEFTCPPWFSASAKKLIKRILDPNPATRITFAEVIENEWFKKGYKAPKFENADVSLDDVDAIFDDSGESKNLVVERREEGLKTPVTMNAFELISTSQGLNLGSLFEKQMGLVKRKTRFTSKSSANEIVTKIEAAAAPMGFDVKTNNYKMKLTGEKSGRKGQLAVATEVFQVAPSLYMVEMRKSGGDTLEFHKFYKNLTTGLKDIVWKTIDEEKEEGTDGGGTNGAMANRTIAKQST
The assay can be described thus: split reporter; luciferase complementation (BiLC; nLUC and cLUC fusions) in Nicotiana benthamiana leaves infiltrated with Agrobacterium GV3101, 24 h in the dark at 25 °C, chemiluminescence imaging.

These are yes or no findings as the source states them, for the method shown. In cells and extracts the contact can be indirect. Some results given as binding are weak or reduced against the parent protein; the word gives no strength. Sequences can lack the tags named with a protein.

As to “AtAKT1 (luciferase fragment fusion) (from UniProt Q38998 1-857)”, the binding entry is reported as “binds”.
